Drawing on PubChem BioAssay AID2685 (National Center for Advancing Translational Sciences (NCATS), 2010), this text covers cell number change and AC50 for 66 molecules.

The list shows a part of the results. Shown are side measurements of this screen, not its main read-out; they come without a call. The list favours compounds with an active or inconclusive main result. Potencies come from curve fits of mixed quality, noted in brackets.

The nature of the test: qHTS Assay for Lipid Storage Modulators in Drosophila S3 Cells.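 On cell number change: cells counted by Cell Tracker Red CMTPX staining in the red channel.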 As to conditions: BODIPY lipid droplet fluorescence, 18-24 h; for cell number change: measured here: cell count max response, cells fed with added oleic acid. A digest of the protocol: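 Drosophila S3 cells loaded with oleic acid (400 uM, as added) and compounds at several concentrations; lipid droplets imaged by 488-nm laser-scanning cytometry, 500–530 nm intensity and object ratio to cell channel. Percent activity normalized to 20 uM Triacsin C.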

Where [1] appears, read: measured here: lipid fluorescence (Fed channel) AC50, cells fed with added oleic acid.
Where [2] appears, read: measured here: cell number channel AC50, cells fed with added oleic acid.

Consider `O=C(NCCCn1ccnc1)c1ccc(OCC(F)(F)F)cc1`, for which the cell number change was 18.4%. Further, the AC50 under setting [1] is 326 nM [rising, full curve, poor fit].

Turning to `CCC(C(=O)NCc1ccccn1)n1c2ccccc2c2nc(=O)cc(C)n21` (centres undefined), the cell number change was -39.9%. Further, under setting [2], the AC50 is 20600 nM [falling, single point]. For the same molecule, the AC50 under setting [1] is 23100 nM [falling, single point].

`CC(C)C[C@H](NC(=O)c1nc[nH]c1C(=O)N[C@@H](CCCCNC(=O)OC(C)(C)C)C(=O)OC(C)(C)C)C(=O)OCc1ccccc1`: the cell number change came to 51.5%. The concentration at half-maximal activity (AC50) under setting [2] was 25900 nM [rising, single point]. In addition, the AC50 under setting [1] is 23100 nM [falling, single point].

Consider `C=CCNC(=O)NC(=O)COC(=O)CNS(=O)(=O)c1ccc(F)c(F)c1F`, for which the AC50 by setting is: under setting [2], 116 nM [falling, full curve, poor fit]; under setting [1], 820 nM [falling, full curve].

Regarding `O=C(NCC1(c2ccccc2)CCCC1)c1ccccc1`, the cell number change amounted to 7.57%. Also, under setting [1], the AC50 is 1160 nM [falling, single point].

Consider `COc1ccc(-c2nc(CS(=O)(=O)CC(=O)NCc3cccc(Br)c3)c(C)o2)cc1`, for which, under setting [1], the AC50 was 14600 nM [falling, partial curve].

As to `COc1ccccc1C(=O)N1CCN(C2CCN(Cc3ccccc3)CC2)CC1`, the cell number change is -5.94%.

Regarding `CCc1ccc(NC(=O)CSc2nc(=O)n3cc(C)ccc3n2)cc1`, under setting [1], the half-maximal activity concentration (AC50) was 2590 nM [rising, partial curve].

With `COc1ccc(CCNC(=O)c2oc3ccc(OC)cc3c2C)cc1`, the cell number change worked out at 16.7%. In addition, the AC50 under setting [1] is 10300 nM [rising, partial curve].

Consider `O=C(Nc1ccc(Cl)c(Cl)c1)c1ccc(Cl)c(Cl)c1`, for which the cell number change was -0.865%.

On to `CCOc1ccc(Br)cc1S(=O)(=O)Nc1cccnc1`, for which the cell number change was -5.26%.

Turning to `COC(=O)C1=C(C(=O)OC)C(c2ccccc2O)c2sc(=O)[nH]c2S1` (centres undefined), the cell number change was found to be 17.1%. Further, under setting [1], the AC50 was 20600 nM [rising, single point].

`Cc1nc2scc(C)n2c(=O)c1S(=O)(=O)NCc1ccc(F)cc1`: the cell number change was determined as 5.9%. Under setting [1], the concentration at half-maximal activity (AC50) is 29100 nM [rising, partial curve].

Take `Cc1ccc(NC(=S)Nc2cccc3cnccc23)c(C)c1`: the AC50 under setting [2] was 6510 nM [rising, single point].

For `Cc1cccc(C)c1OCc1cc(C(=O)N2CCCC2c2nonc2C)no1` (centres undefined), the cell number change is 12.2%. Under setting [1], the AC50 was 411 nM [rising, partial curve, poor fit].

Take `COc1ccccc1/C=C/C(=O)c1ccc(NC(C)=O)cc1`: the cell number change is -24.4%. Moreover, the AC50 under setting [1] was 6510 nM [falling, partial curve].

For the molecule `Cc1cc(Br)ccc1NC(=S)NC1CCCC1`, the cell number change is -31.7%. Besides, under setting [2], the concentration at half-maximal activity (AC50) was 820 nM [falling, full curve, poor fit].

Consider `CCC(=O)Nc1ccc(C(=O)COC(=O)C(CCSC)NC(=O)COc2ccccc2)cc1` (centres undefined), for which the cell number change was 12.5%.

For the molecule `CN(CC(=O)Nc1ccccc1C(F)(F)F)C(=O)COc1ncnc2ccccc12`, the cell number change is -23.1%.

Regarding `O=C(Nc1ccccc1N1CCCCC1)c1ccccc1F`, the cell number change is -34.8%. Also, the half-maximal activity concentration (AC50) under setting [2] is 13000 nM [falling, partial curve, poor fit]. Further, the AC50 under setting [1] was 259 nM [rising, full curve, poor fit].

Take `CN(CC(=O)Nc1ccc([N+](=O)[O-])cc1Br)Cc1c(F)cccc1Cl`: the AC50 under setting [2] was 6510 nM [rising, single point].

`Cc1cccc(Nc2nc(N)c([N+](=O)[O-])c(N3CCOCC3)n2)c1`: the cell number change came to 25.4%.

As for `Cc1cc(C)nc(N2CCN(c3ncnc4c3oc3ccccc34)CC2)n1`, the cell number change is -6.23%. In addition, the AC50 under setting [2] is 2590 nM [rising, single point].

`CC(=O)NC12CC3CC(C1)CC(C(=O)Nc1nccs1)(C3)C2`: the cell number change was determined as 7.46%. Also, under setting [1], the AC50 was 651 nM [falling, single point].

As to `Cc1ccc(NC(=O)COC(=O)C2=COCCO2)cc1`, the cell number change was -24.7%. Further, the concentration at half-maximal activity (AC50) under setting [2] is 92 nM [falling, full curve, poor fit].

`Cc1ccc(C(=O)N/C(=C\c2cn(C)c3ccccc23)C(=O)NCCCN2CCOCC2)cc1`: the cell number change came to 0.708%. In addition, under setting [1], the AC50 is 29100 nM [rising, single point].

Turning to `COc1ccc(/C=C(\C#N)C(=O)OCC(=O)NCc2ccccc2OC)cc1`, the cell number change is 6.99%.

Consider `COc1cc(CNc2nc3ccccc3s2)cc(OC)c1OC`, for which the cell number change was determined as 11%.

`COc1cc(CN(C(=O)c2ccco2)c2ccc(C)cc2)ccc1O`: the cell number change is -12%.

For the molecule `Cc1cccc(C)c1NC(=O)CNC(=O)C(C)N1CCCCC1` (centres undefined), the cell number change is 15%. The AC50 under setting [1] was 4110 nM [falling, single point].

For the molecule `CCCC(=O)Oc1ccc(N(C(=O)CCC)S(=O)(=O)c2cccs2)cc1`, the cell number change was -0.228%.

On to `COc1cc(Cl)c(C)cc1NC(=O)c1cc(S(=O)(=O)N(C)C)ccc1N1CCCC1`, for which the cell number change was -43.7%. Moreover, the concentration at half-maximal activity (AC50) under setting [2] was 517 nM [falling, partial curve].

Regarding `CC(=O)c1cccc(N(C(=O)CNC(=O)c2ccco2)C(C(=O)NC2CCCC2)c2ccncc2)c1` (centres undefined), the cell number change was 17.5%.

Take `CCCCCCCCCc1nc2sc3c(c2c(=O)n1NC(=O)c1ccc([N+](=O)[O-])cc1)CC(C)(C)OC3`: the cell number change is 0.829%.

On to `COc1cccc(N2CC(O)=C(c3nc4ccccc4c(=O)[nH]3)C2=N)c1`, for which the cell number change is 37.1%. Also, under setting [2], the concentration at half-maximal activity (AC50) was 1160 nM [rising, full curve]. For the same molecule, the half-maximal activity concentration (AC50) under setting [1] was 651 nM [rising, full curve].

As to `C#CC[N+](C)(C)CCCCCCCCC`, the cell number change came out at 5.34%.

For `Cc1cccc(C(C)C)c1NC(=O)COC(=O)c1cccc(S(=O)(=O)N2CCc3ccccc3C2)c1`, the cell number change is -0.649%. For the same molecule, the concentration at half-maximal activity (AC50) under setting [2] was 58 nM [falling, full curve]. Besides, the AC50 under setting [1] was 4110 nM [falling, full curve].

Consider `COC(=O)c1ccccc1NC(=O)COC(=O)c1cccnc1`, for which the cell number change stood at 29.7%. Besides, the AC50 under setting [2] was 231 nM [rising, full curve, poor fit].

`COCc1c(C(=O)Nc2ccc3nc(N4CCOCC4)sc3c2)oc2ccccc12`: the cell number change was determined as 7.15%. The half-maximal activity concentration (AC50) under setting [1] is 4.61 nM [falling, full curve, poor fit].

For `CC(C)N(Cc1ccccc1)C(=O)CN1C(=O)NC2(CCCCCC2)C1=O`, the cell number change was -40.6%. The AC50 under setting [2] was 14600 nM [falling, single point]. The concentration at half-maximal activity (AC50) under setting [1] was 16400 nM [falling, single point].

With `COC(=O)Cc1ccc(NC(=S)NNC(=O)C2CC2)cc1`, the cell number change was -33.7%. Also, under setting [2], the AC50 was 326 nM [falling, full curve].

With `CC(=O)Nc1sc2c(c1C#N)CCN(Cc1ccccc1)C2`, the cell number change is -2.02%. Moreover, the AC50 under setting [1] was 3260 nM [falling, single point].

As for `Cc1ccc(C(=O)Nc2cccc(-c3nc4ncccc4o3)c2)cc1`, the cell number change was 13.7%. Further, under setting [2], the AC50 is 58 nM [rising, full curve, poor fit]. Moreover, under setting [1], the AC50 is 1300 nM [rising, full curve].

For `CCCC(=O)C1=C(O)C(C(=O)OC)C(C)(C)CC1=N` (centres undefined), the cell number change stood at 33.8%. In addition, the AC50 under setting [2] was 29100 nM [rising, single point]. In addition, under setting [1], the AC50 is 1460 nM [falling, full curve].

On to `Cn1c(N)c(N=O)c(=O)n(C)c1=O`, for which the half-maximal activity concentration (AC50) under setting [2] is 580 nM [rising, single point].

Regarding `O=C1c2[nH]nc(-c3ccccc3O)c2C(c2ccccc2)N1Cc1ccco1` (centres undefined), the AC50 was 820 nM [falling, single point] under setting [2] and 651 nM [falling, single point] under setting [1].

For the molecule `O=C(COc1ccc2c(C(F)(F)F)cc(=O)oc2c1)NCc1cccs1`, the cell number change was determined as 1.17%. The AC50 under setting [1] was 2310 nM [rising, single point].

As to `COc1ccc(C(=O)OCC2CC(c3ccccc3)=NO2)cc1OC` (centres undefined), the cell number change is -38.7%.

For the molecule `CC1(c2ccc(Cl)cc2Cl)OCC(Cn2ccnc2)O1` (centres undefined), the cell number change is -48%. Further, the AC50 under setting [1] was 2590 nM [rising, partial curve, poor fit].

Consider `CC(=O)c1c(C)nc(-c2ccc(OCC(=O)Nc3cccc(C)c3C)cc2)n1O`, for which the cell number change was -0.63%. The concentration at half-maximal activity (AC50) under setting [1] is 32600 nM [falling, single point].

As to `CCN1CCN(Cc2nc3c(c(=O)n(C)c(=O)n3C)n2Cc2cccc3ccccc23)CC1`, the cell number change is -43.7%. For the same molecule, under setting [2], the AC50 was 146 nM [falling, full curve, poor fit]. Further, the AC50 under setting [1] was 1460 nM [falling, partial curve, poor fit].

As to `O=C(NC(=S)Nc1nc(-c2ccccc2)cs1)c1cccnc1`, the AC50 by setting is: under setting [2], 3260 nM [rising, single point]; under setting [1], 2590 nM [rising, single point].

Take `COc1ccc(-c2cc(C(F)(F)F)nc(SCC(=O)Nc3sc4c(c3C#N)CCC4)n2)cc1`: the cell number change was found to be 27.3%.

On to `COc1ccccc1NC(=S)N1CCN(C/C=C/c2ccccc2)CC1`, for which the cell number change is -27.9%.

Regarding `COc1ccc(-n2c(=S)[nH]c3cc(C(=O)N4CCN(c5ccccc5)CC4)ccc3c2=O)c(OC)c1`, the cell number change turned out to be 5.13%.

For the molecule `CC(=O)Nc1ccc(S(=O)(=O)NC2CCSc3ccccc32)cc1` (centres undefined), the cell number change came out at 26.1%.

`COC(=O)c1cccc(Oc2nc3c(c(=O)n(C)c(=O)n3C)n2C(C)C)c1`: the cell number change is 21.1%.

Regarding `Cc1ccc(C(=O)NCCc2ccccc2)cc1`, the cell number change was found to be 11.1%. Under setting [1], the concentration at half-maximal activity (AC50) is 184 nM [rising, full curve, poor fit].

`CCOC(=O)c1ccccc1-c1csc(N)n1`: the cell number change is -4.31%.

In the case of `C=CCn1c(N2CCCC2)nc2c1c(=O)n(C)c(=O)n2C`, the cell number change was -36.5%. In addition, the AC50 under setting [2] is 13000 nM [falling, single point]. Moreover, the AC50 under setting [1] was 2910 nM [rising, partial curve, poor fit].

Take `CN(CC(=O)NC(=O)NCc1ccccc1)Cc1cccc(Cl)c1Cl`: the cell number change stood at 11.1%.

Take `CCOC(=O)N1CCC(=NNC(=O)NC2CCCCC2)CC1`: the cell number change was -40.7%. Besides, under setting [1], the concentration at half-maximal activity (AC50) is 3160 nM [falling, full curve, poor fit].

As to `C/C(=N\Nc1ccccn1)c1ccc(OC(F)F)cc1`, the cell number change was -30.4%.

Turning to `O=C(O)CNS(=O)(=O)c1ccc(Br)s1`, the cell number change is 3.69%.

Consider `COc1cc(C(=O)NCCOc2ccccc2C)c(Br)c(OC)c1OC`, for which the cell number change turned out to be 4.44%. For the same molecule, under setting [1], the AC50 is 14600 nM [rising, single point].

`CC1CCCCN1C(=O)COc1ccc(NC(=O)c2ccco2)cc1` (centres undefined): the cell number change was 15.5%. The AC50 under setting [1] is 11600 nM [rising, partial curve].

Usually AC50 stands for the concentration giving half of the maximal activity seen. A high value points to activity only at high concentration.
